# Results from the supplement of paper PMC8728848.
# The list shows a part of the results.
# B1: YghJ (Escherichia coli), E3PJ90 (protein)
# chain: MNKKFKYKKSLLAAILSATLLAGCDGGGSGSSSDTPPVDSGTGSLPEVKPDPTPNPEPTPEPTPDPEPTPEPIPDPEPTPEPEPEPVPTKTGYLTLGGSQRVTGATCNGESSDGFTFKPGEDVTCVAGNTTIATFNTQSEAARSLRAVEKVSFSLEDAQELAGSDDKKSNAVSLVTSSNSCPANTEQVCLTFSSVIESKRFDSLYKQIDLAPEEFKKLVNEEVENNAATDKAPSTHTSPVVPVTTPGTKPDLNASFVSANAEQFYQYQPTEIILSEGRLVDSQGYGVAGVNYYTNSGRGVTGENGEFSFSWGEAISFGIDTFELGSVRGNKSTIALTELGDEVRGANIDQLIHRYSTTGQNNTRVVPDDVRKVFAEYPNVINEIINLSLSNGATLGEGEQVVNLPNEFIEQFNTGQAKEIDTAICAKTDGCNEARWFSLTTRNVNDGQIQGVINKLWGVDTNYKSVSKFHVFHDSTNFYGSTGNARGQAVVNISNAAFPILMARNDKNYWLAFGEKRAWDKNELAYITEAPSIVRPENVTRETASFNLPFISLGQVGDGKLMVIGNPHYNSILRCPNGYSWNGGVNKDGQCTLNSDPDDMKNFMENVLRYLSNDRWLPDAKSSMTVGTNLETVYFKKHGQVLGNSAPFAFHKDFTGITVKPMTSYGNLNPDEVPLLILNGFEYVTQWGSDPYSIPLRADTSKPKLTQQDVTDLIAYMNKGGSVLIMENVMSNLKEESASGFVRLLDAAGLSMALNKSVVNNDPQGYPDRVRQRRSTPIWVYERYPAVDGKPPYTIDDTTKEVIWKYQQENKPDDKPKLEVASWQEEVEGKQVTQFAFIDEADHKTPESLAAAKQRILDAFPGLEVCKDSDYHYEVNCLEYRPGTDVPVTGGMYVPQYTQLDLSADTAKAMLQAADLGTNIQRLYQHELYFRTNGRQGERLNSVDLERLYQNMSVWLWNETKYRYEEGKEDELGFKTFTEFLNCYTNNAYVGTQCSAELKKSLIDNKMIYGEESSKAGMMNPSYPLNYMEKPLTRLMLGRSWWDLNIKVDVEKYPGVVNTNGETVTQNINLYSAPTKWFAGNMQSTGLWAPAQQEVSIESKSTVPVTVTVALADDLTGREKHEVSLNRPPRVTKTYDLKANDKVTFKVPYGGLIYIKGDSKEVQSADFTFTGVVKAPFYKDGKWQHDLNSPAPLGELESASFVYTTPKKNLNASNYTGGLEQFANDLDTFASSMNDFYGRDSEDGKHRMFTYKNLPGHKHRFANDVQISIGDAHSGYPVMNSSFSPNSTTLPTTPLNDWLIWHEVGHNAAETPLTVPGATEVANNVLALYMQDRYLGKMNRVADDITVAPEYLEESNGQAWARGGAGDRLLMYAQLKEWAEKNFDIKKWYPDGTPLPEFYSEREGMKGWNLFQLMHRKARGDEVSNDKFGGKNYCAESNGNAADTLMLCASWVAQTDLSEFFKKWNPGANAYQLPGASEMSFEGGVSQSAYNTLASLDLPKPEQGPETINQVTEHKMSAE
# Columns and labels:
# Assay in all cases: glycan array binding signal (z-score within array); higher = stronger binding
# Settings in all cases: glycan notation: IUPAC condensed, linker removed
# [1] = molecular target: Neu5Ac(a2-6)Gal(b1-4)GlcNAc(b1-2)Man(a1-3)[Man(a1-6)]Man(b1-4)GlcNAc(b1-4)GlcNAc
# In short: (§1)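 Glycan array data came from 3228 arrays in the Consortium for Functional Glycomics database, and only arrays with an available protein sequence were kept. Glycan names were put into IUPAC-condensed notation, and columns mapping to the same glycan were averaged. The binding signal is a within-array Z-score, averaged across arrays of one protein sequence run at different concentrations or buffers and across linkers. A negative Z-score can be read as non-binding.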
# [2] = molecular target: Neu5Ac(a2-6)Gal(b1-4)GlcNAc(b1-2)Man(a1-3)[Neu5Ac(a2-3)Gal(b1-4)GlcNAc(b1-2)Man(a1-6)]Man(b1-4)GlcNAc(b1-4)GlcNAc
# In short: as §1
# [3] = molecular target: Neu5Ac(a2-6)Gal(b1-4)GlcNAc(b1-2)Man(a1-3)[Neu5Ac(a2-6)Gal(b1-4)GlcNAc(b1-2)Man(a1-6)]Man(b1-4)GlcNAc(b1-4)GlcNAc
# In short: as §1
# [4] = molecular target: Neu5Ac(a2-6)Gal(b1-4)GlcNAc(b1-2)Man(a1-3)[Neu5Ac(a2-6)Gal(b1-4)GlcNAc(b1-2)Man(a1-6)]Man(b1-4)GlcNAc(b1-4)[Fuc(a1-6)]GlcNAc
# In short: as §1
# [5] = molecular target: Neu5Ac(a2-6)Gal(b1-4)GlcNAc(b1-2)Man(a1-6)Man(b1-4)GlcNAc(b1-4)GlcNAc
# In short: as §1
# [6] = molecular target: Neu5Ac(a2-6)Gal(b1-4)GlcNAc(b1-2)Man(a1-6)[Gal(b1-4)GlcNAc(b1-2)Man(a1-3)]Man(b1-4)GlcNAc(b1-4)GlcNAc
# In short: as §1
# [7] = molecular target: Neu5Ac(a2-6)Gal(b1-4)GlcNAc(b1-2)Man(a1-6)[GlcNAc(b1-2)Man(a1-3)]Man(b1-4)GlcNAc(b1-4)GlcNAc
# In short: as §1
# [8] = molecular target: Neu5Ac(a2-6)Gal(b1-4)GlcNAc(b1-2)Man(a1-6)[Man(a1-3)]Man(b1-4)GlcNAc(b1-4)GlcNAc
# In short: as §1
# [9] = molecular target: Neu5Ac(a2-6)Gal(b1-4)GlcNAc(b1-2)[Neu5Ac(a2-6)Gal(b1-4)GlcNAc(b1-4)]Man(a1-3)[GlcNAc(b1-4)][Neu5Ac(a2-6)Gal(b1-4)GlcNAc(b1-2)[Neu5Ac(a2-6)Gal(b1-4)GlcNAc(b1-6)]Man(a1-6)]Man(b1-4)GlcNAc(b1-4)GlcNAc
# In short: as §1
# [10] = molecular target: Neu5Ac(a2-6)Gal(b1-4)GlcNAc(b1-2)[Neu5Ac(a2-6)Gal(b1-4)GlcNAc(b1-4)]Man(a1-3)[GlcNAc(b1-4)][Neu5Ac(a2-6)Gal(b1-4)GlcNAc(b1-4)Man(a1-6)]Man(b1-4)GlcNAc(b1-4)GlcNAc
# In short: as §1
# [11] = molecular target: Neu5Ac(a2-6)Gal(b1-4)GlcNAc(b1-2)[Neu5Ac(a2-6)Gal(b1-4)GlcNAc(b1-6)]Man(a1-6)[Neu5Ac(a2-6)Gal(b1-4)GlcNAc(b1-2)Man(a1-3)][GlcNAc(b1-4)]Man(b1-4)GlcNAc(b1-4)GlcNAc
# In short: as §1
# [12] = molecular target: Neu5Ac(a2-6)Gal(b1-4)GlcNAc(b1-3)Gal(b1-3)GlcNAc
# In short: as §1
# [13] = molecular target: Neu5Ac(a2-6)Gal(b1-4)GlcNAc(b1-3)Gal(b1-4)GlcNAc
# In short: as §1
# [14] = molecular target: Neu5Ac(a2-6)Gal(b1-4)GlcNAc(b1-3)Gal(b1-4)GlcNAc(b1-2)Man(a1-3)[Neu5Ac(a2-6)Gal(b1-4)GlcNAc(b1-3)Gal(b1-4)GlcNAc(b1-2)Man(a1-6)]GalNAc
# In short: as §1
# [15] = molecular target: Neu5Ac(a2-6)Gal(b1-4)GlcNAc(b1-3)Gal(b1-4)GlcNAc(b1-3)Gal(b1-4)GlcNAc
# In short: as §1
# [16] = molecular target: Neu5Ac(a2-6)Gal(b1-4)GlcNAc(b1-3)Gal(b1-4)GlcNAc(b1-3)Gal(b1-4)GlcNAc(b1-2)Man(a1-3)[Neu5Ac(a2-6)Gal(b1-4)GlcNAc(b1-3)Gal(b1-4)GlcNAc(b1-3)Gal(b1-4)GlcNAc(b1-2)Man(a1-6)]GalNAc
# In short: as §1
# [17] = molecular target: Neu5Ac(a2-6)Gal(b1-4)GlcNAc(b1-3)Gal(b1-4)GlcNAc(b1-3)GalNAc
# In short: as §1
# [18] = molecular target: Neu5Ac(a2-6)Gal(b1-4)GlcNAc(b1-3)Gal(b1-4)GlcNAc(b1-3)[Neu5Ac(a2-6)Gal(b1-4)GlcNAc(b1-3)Gal(b1-4)GlcNAc(b1-6)]GalNAc
# In short: as §1
# [19] = molecular target: Neu5Ac(a2-6)Gal(b1-4)GlcNAc(b1-3)Gal(b1-4)GlcNAc(b1-6)[Gal(b1-3)]GalNAc
# In short: as §1
# [20] = molecular target: Neu5Ac(a2-6)Gal(b1-4)GlcNAc(b1-3)Gal(b1-4)[Fuc(a1-3)]GlcNAc(b1-3)Gal(b1-4)[Fuc(a1-3)]GlcNAc
# In short: as §1
# [21] = molecular target: Neu5Ac(a2-6)Gal(b1-4)GlcNAc(b1-3)GalNAc
# In short: as §1
# [22] = molecular target: Neu5Ac(a2-6)Gal(b1-4)GlcNAc(b1-3)[Neu5Ac(a2-6)Gal(b1-4)GlcNAc(b1-6)]GalNAc
# In short: as §1
# [23] = molecular target: Neu5Ac(a2-6)Gal(b1-4)GlcNAc(b1-6)GalNAc
# In short: as §1
# [24] = molecular target: Neu5Ac(a2-6)Gal(b1-4)GlcNAc(b1-6)[Gal(b1-3)GlcNAc(b1-3)]Gal(b1-4)Glc
# In short: as §1
# [25] = molecular target: Neu5Ac(a2-6)Gal(b1-4)GlcNAc(b1-6)[Gal(b1-3)]GalNAc
# In short: as §1
# [26] = molecular target: Neu5Ac(a2-6)Gal(b1-4)GlcNAc6S
# In short: as §1
# [27] = molecular target: Neu5Ac(a2-6)GalNAc
# In short: as §1
# [28] = molecular target: Neu5Ac(a2-6)GalNAc(b1-4)GlcNAc
# In short: as §1
# [29] = molecular target: Neu5Ac(a2-6)GalNAc(b1-4)GlcNAc6S
# In short: as §1
# [30] = molecular target: Neu5Ac(a2-6)GlcNAc(b1-4)GlcNAc
# In short: as §1
# [31] = molecular target: Neu5Ac(a2-6)GlcNAc(b1-4)GlcNAc(b1-4)GlcNAc
# In short: as §1
binder,measurement,setting,value
B1,glycan array binding signal (z-score),[1],0.586
same,glycan array binding signal (z-score),[2],1.26
same,glycan array binding signal (z-score),[3],0.649
same,glycan array binding signal (z-score),[4],1.33
same,glycan array binding signal (z-score),[5],0.985
same,glycan array binding signal (z-score),[6],0.898
same,glycan array binding signal (z-score),[7],-0.305
same,glycan array binding signal (z-score),[8],-0.832
same,glycan array binding signal (z-score),[9],-0.767
same,glycan array binding signal (z-score),[10],0.017
same,glycan array binding signal (z-score),[11],-0.237
same,glycan array binding signal (z-score),[12],-0.231
same,glycan array binding signal (z-score),[13],1.22
same,glycan array binding signal (z-score),[14],-1.04
same,glycan array binding signal (z-score),[15],-1.35
same,glycan array binding signal (z-score),[16],0.058
same,glycan array binding signal (z-score),[17],0.508
same,glycan array binding signal (z-score),[18],-0.928
same,glycan array binding signal (z-score),[19],-1.78
same,glycan array binding signal (z-score),[20],-0.348
same,glycan array binding signal (z-score),[21],0.497
same,glycan array binding signal (z-score),[22],0.915
same,glycan array binding signal (z-score),[23],0.217
same,glycan array binding signal (z-score),[24],0.059
same,glycan array binding signal (z-score),[25],-1.4
same,glycan array binding signal (z-score),[26],0.082
same,glycan array binding signal (z-score),[27],0.205
same,glycan array binding signal (z-score),[28],-1.29
same,glycan array binding signal (z-score),[29],-0.547
same,glycan array binding signal (z-score),[30],-1.03
same,glycan array binding signal (z-score),[31],-0.586

# Given tab-delimited: entries from further up.
binder	measurement	setting	value
B1	glycan array binding signal (z-score)	[11]	-0.237
same	glycan array binding signal (z-score)	[12]	-0.231
same	glycan array binding signal (z-score)	[25]	-1.4
